Results on 42 sequences are retold here after publication PMC7819943, “Rice protein-binding microarrays: a tool to detect cis-acting elements near promoter regions in rice”.

Chains of the proteins cited; added tags and fusions are not shown.
UniProt Q0JBA9, entry or part of it: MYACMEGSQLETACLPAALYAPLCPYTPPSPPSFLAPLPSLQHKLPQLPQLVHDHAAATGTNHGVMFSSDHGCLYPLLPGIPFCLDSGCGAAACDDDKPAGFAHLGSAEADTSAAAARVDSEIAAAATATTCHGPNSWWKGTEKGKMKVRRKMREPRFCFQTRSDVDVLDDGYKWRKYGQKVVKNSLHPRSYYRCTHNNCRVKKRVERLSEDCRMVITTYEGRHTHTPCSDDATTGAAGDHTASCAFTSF

Some of the results follow.

The target of the experiment is OsWRKY34 (Oryza sativa, UniProt Q0JBA9 1-250). Briefly: protein-binding microarray (RPBM); PBS, 2% BSA, 51.3 ng/ul salmon testes DNA, 50 uM zinc acetate, 200 nM TF, 25 C, 1 h; high values mean tight binding. As to conditions: protein: recombinant; tags: N-terminal polyhistidine and DsRed monomer fusion (pET32a); label: CyDye5-dUTP incorporated in the synthesized complementary strand; 3' TTTTT single-stranded linker to array surface; dsDNA, one strand shown. The method, boiled down:
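Transcription factors were each fused at the N-terminus to a polyhistidine tag plus DsRed and expressed in E. coli BL21-CodonPlus before Ni–NTA purification. Binding to a double-stranded custom Agilent array was carried out with 200 nM protein at 25 °C for 1 h in PBS, 2% BSA, salmon testes DNA and 50 µM zinc acetate. The binding signal is per-feature fluorescence intensity, in arbitrary units, on an Axon 4000B scanner.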
As to “ACACTGAAACCTAACACCAGCTGGTGCGTTTCATTTCAAACGGAGTCACCTAGTGCAG”, the binding signal was 8140 fluorescence intensity (a.u.).

Turning to “CGGGGTGGGAGCAGGGGTCGCGCGGCGGGGTGCGGCCATGCGGAGTCACCTAGTGCAG”, the binding signal was 10100 fluorescence intensity (a.u.).

Consider “GGTATGGTCAGTCTCATCAGTGCCCATCTCCTCTCGCTACCGGAGTCACCTAGTGCAG”, for which the binding signal was 8230 fluorescence intensity (a.u.).

In the case of “CAAGGTTTACTAATGTTTTGCCTCTTGTTTTCCGTTTGTACGGAGTCACCTAGTGCAG”, the binding signal was 9310 fluorescence intensity (a.u.).

For “GGGTTCTGGGGCAGGGAGCTCATCCTCCCGGTCGACGGCGCGGAGTCACCTAGTGCAG”, the binding signal was 8550 fluorescence intensity (a.u.).

For “TTTGCTTCCAGCTTCTTGGGATTGCTCTGTTTCTTGCTGACGGAGTCACCTAGTGCAG”, the binding signal was 8590 fluorescence intensity (a.u.).

Regarding “CCATTTCCCGCACTGCAATTCCCACACTTGCACGCACACACGGAGTCACCTAGTGCAG”, the binding signal was 10600 fluorescence intensity (a.u.).

For “ATGGGCATTGACTTCCACGCCCACCTTGTTGCCTCCGCTGCGGAGTCACCTAGTGCAG”, the binding signal was 8750 fluorescence intensity (a.u.).

Consider “CGTGATCCAAGTATCCAACACTACAGCGCATGGTCTGTTCCGGAGTCACCTAGTGCAG”, for which the binding signal was 9880 fluorescence intensity (a.u.).

On to “TTCTTGGACCACCCAGTTATCTGCCTTTTTTTATTTTTTTCGGAGTCACCTAGTGCAG”, for which the binding signal was 8930 fluorescence intensity (a.u.).

Regarding “GCACCACGATACACGTGCATCTACTCCTAGTCCTACTGCTCGGAGTCACCTAGTGCAG”, the binding signal was 9180 fluorescence intensity (a.u.).

Take “TGAGAGTCCCTCATTTTTTATCTAGCGTAACATGTTCTTCCGGAGTCACCTAGTGCAG”: the binding signal is 8120 fluorescence intensity (a.u.).

Regarding “TTCTAAAAAAAAACTTTGTTCTTGTTTGGGCCTCTCGCGACGGAGTCACCTAGTGCAG”, the binding signal is 8180 fluorescence intensity (a.u.).

Regarding “CGTCGGGGTTGGGGTTGGGGCTGGGGCCGGCGCCGACGCCCGGAGTCACCTAGTGCAG”, the binding signal is 13400 fluorescence intensity (a.u.).

“AGTGTCCATTCTATTTTAATTCTTTGCGCGTTGTGAGGTACGGAGTCACCTAGTGCAG”: the binding signal was 9860 fluorescence intensity (a.u.).

For “CCGTCACCCGTCGCCTCCGCATGCCCACACACACCACGATCGGAGTCACCTAGTGCAG”, the binding signal is 9510 fluorescence intensity (a.u.).

Consider “GTTGTGACTACCCTCAGTCCGTCGTCTAAGTCAAATAATTCGGAGTCACCTAGTGCAG”, for which the binding signal is 9290 fluorescence intensity (a.u.).

For “TCCTTCTCCAACCAGTCATTGCGGTCGCCTTTCTTCATCACGGAGTCACCTAGTGCAG”, the binding signal is 9450 fluorescence intensity (a.u.).

In the case of “GCATGTTCTTTTTACATTCGTGTAATTATATTTCTATTATCGGAGTCACCTAGTGCAG”, the binding signal was 9850 fluorescence intensity (a.u.).

For the sequence “ATCGATCTGCCTTTTGAGTTTTGTACACATCCATCTTTTCCGGAGTCACCTAGTGCAG”, the binding signal is 14200 fluorescence intensity (a.u.).

Regarding “AAACGCCGTTCCTTTTTTCTTTTTTCTCTCCCGATCGATCCGGAGTCACCTAGTGCAG”, the binding signal was 8050 fluorescence intensity (a.u.).

As for “GGCATCCTCAAATTCCACCCTTTTCACCCTGTTTGCACTTCGGAGTCACCTAGTGCAG”, the binding signal is 8420 fluorescence intensity (a.u.).

Take “ATCAAGTCACCAGCTACATGGCATTTTGGCCTCAACTCTCCGGAGTCACCTAGTGCAG”: the binding signal was 8340 fluorescence intensity (a.u.).

With “TCTACCCGGAGCTCTGCCTGTCCACGCTCGCCGACATCCCCGGAGTCACCTAGTGCAG”, the binding signal is 11100 fluorescence intensity (a.u.).

With “TGACAAATCTATTCTATTTTACTTTATTTTTTTATTTTTCCGGAGTCACCTAGTGCAG”, the binding signal is 8980 fluorescence intensity (a.u.).

For the sequence “CCCTCCGCCGCCGCTGCCGGCCTGCTGCTCTGCTGCCGCGCGGAGTCACCTAGTGCAG”, the binding signal was 9230 fluorescence intensity (a.u.).

In the case of “AAGGTAGAGGAGGAGAAGTTGGGGTTTGGGAGGGCCAGCGCGGAGTCACCTAGTGCAG”, the binding signal was 11600 fluorescence intensity (a.u.).

Turning to “CCCACTCCTCGCCGCGCTGCCAAATGTACGTCGCTGCCACCGGAGTCACCTAGTGCAG”, the binding signal is 8590 fluorescence intensity (a.u.).

Consider “GTCGGACTCCTATTTCCTTTAGAATTCTTGCCAAATCATACGGAGTCACCTAGTGCAG”, for which the binding signal was 8910 fluorescence intensity (a.u.).

As for “TCCGCGGGTTCGTCCGCTTCTTCAACCTCTCCACCGGCGCCGGAGTCACCTAGTGCAG”, the binding signal was 8300 fluorescence intensity (a.u.).

Regarding “GCATCCGTCCGTCAACGCACATCGTCACTGCTGCTTCCTGCGGAGTCACCTAGTGCAG”, the binding signal is 15700 fluorescence intensity (a.u.).

As for “ACACCACTCTCTCGCCCACTGTTTTTCTCTTGTGCAGGGACGGAGTCACCTAGTGCAG”, the binding signal is 8920 fluorescence intensity (a.u.).

Turning to “CGAACTATTTTGACCACCCGTATGCATCTTGTTGGTTCTGCGGAGTCACCTAGTGCAG”, the binding signal is 9050 fluorescence intensity (a.u.).

As for “ATCCCCACGCGCGCGCTACTCACTCCCTCCGGCCGTCCCACGGAGTCACCTAGTGCAG”, the binding signal is 8150 fluorescence intensity (a.u.).

Take “TCACTGTTACCCGTTCACATTAGTCGCTGTTCCAGTCTTCCGGAGTCACCTAGTGCAG”: the binding signal is 10700 fluorescence intensity (a.u.).

Turning to “CCCTGGTGTTTGGATTTGGTTGTTCCTCGCGATTGCATTTCGGAGTCACCTAGTGCAG”, the binding signal was 15600 fluorescence intensity (a.u.).

“TGTGGTGTAGGGGCGAATTTTGAACTCGGTGACAAATTGACGGAGTCACCTAGTGCAG”: the binding signal was 9310 fluorescence intensity (a.u.).

Regarding “TCATCGTGGACACGTACCCTCGTGCATGCGCGCATGGTGTCGGAGTCACCTAGTGCAG”, the binding signal was 8050 fluorescence intensity (a.u.).

For “TACACCAAATTGACTAGGCATATATTTGTACCACTCATTCCGGAGTCACCTAGTGCAG”, the binding signal is 8290 fluorescence intensity (a.u.).

Turning to “GGTGCATTCTCCTCCGCTGTATCTACTCGCCAACTCCCTACGGAGTCACCTAGTGCAG”, the binding signal is 8800 fluorescence intensity (a.u.).

As to “TCATTTTTCTCACCTACCTCCACTACTCATTCAATCACAACGGAGTCACCTAGTGCAG”, the binding signal is 9570 fluorescence intensity (a.u.).

For the sequence “CACTCGACTCCAACTATAGTCAACTCCCATAAACAAAACTCGGAGTCACCTAGTGCAG”, the binding signal is 8120 fluorescence intensity (a.u.).
